The values below come from article PMC12598805, “Crystal Structure–Activity Relationship of Some MeO Phenylacrylonitriles: Dual Antimicrobial–Cytotoxic Effects and in Silico Perspectives” (ChemistryOpen, 2025).

For this assay, the system named is Candida albicans (ATCC-10231). Put plainly: Broth microdilution MIC. Format: cell-based. As to conditions: ATCC10231, C.albicans. How it is done:
ATCC: American Type Culture Collection; NRRL: Northern Regional Research Laboratory The compounds 2(a-c) obtained could only be completely solubilised with dimethyl sulphoxide (DMSO) and the highest possible stock solutions of 50 mg.mL-1 were prepared. […]
3.1. Determination of Minimum Inhibition Concentration (MIC)
The minimum inhibition concentration (MIC) values of the compounds 2(a-c) against the test bacteria used in the study were determined according to the broth microdilution method.[1-2] MHB or SDB was used as test medium and bacterial and yeast suspensions were prepared at 0.5 Mc Farland concentration for each test bacteria. Double layer serial dilutions were prepared in "U" type 96-well microtiter plates. Medium+bacteria suspensions containing only medium in the first row, medium+bacteria in the second row and the final concentrations of the synthesised substances in the other rows between 25 mg.mL-1 and […] were added to the wells with a final volume of 200
μL. Ampicillin, Kanamycin and Amphotericin B standard antibiotics were used as positive controls.
Bacteria were incubated at 37±0.1 °C and C. albicans at 30±0.1 °C for 24-48 hours and the lowest concentration without growth was determined as MIC. Tests were performed in two parallel runs and mean values were given as a result. […]
(In broth dilution the organism is exposed to a series of concentrations in liquid medium.)

≈ marks a conversion by molar mass, not a printed value.

With `C[C@@H]1[C@H](O)[C@@H](C)/C=C/C=C/C=C/C=C/C=C/C=C/C=C/[C@H](O[C@@H]2O[C@H](C)[C@@H](O)[C@H](N)[C@@H]2O)C[C@@H]2O[C@](O)(C[C@@H](O)C[C@@H](O)[C@H](O)CC[C@@H](O)C[C@@H](O)CC(=O)O[C@H]1C)C[C@H](O)[C@H]2C(=O)O` [Amphotericin B, reference compound], the MIC (commonly the lowest concentration that inhibits growth of the organism) amounted to 250 µg/mL (≈ 271 µM).
